Assay results taken from PMC10327518 (Journal of Enzyme Inhibition and Medicinal Chemistry, 2023).

Tested on: Aβ25-35-induced PC12 cell injury

Compound: COc1cc2c(cc1OC)C(=O)C(CC1CCN(Cc3ccccc3)CC1)C2 (stereo not shown) [Donepezil, donepezil, reference compound]
- Neuroprotective effect (in words): potent neuroprotective effect
